# Results as given in the supplement of paper PMC4604168 (melanoma cell lines).
# The other results are listed elsewhere or left out. Single values are uncertain, as repeats are few or missing.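 Imaging used 1,536-well plates; nuclei positive for cleaved PARP by antibody were divided by total DNA-stained nuclei to yield the apoptosis fraction. Doses for screening kept most cells viable, and cell lines differ markedly in resting and induced cleaved-PARP levels.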
# Key:
# Test in all cases: cleaved PARP positive nuclei fraction relative to DMSO control; melanoma cells; higher = more apoptosis
# Conditions in all cases: library dose: low library concentration; 72 h
# 501Mel = tested on: 501Mel
# A101D = tested on: A101D
# A2058 = tested on: A2058
# C32 = tested on: C32
# CBRC008 = tested on: CBRC008 (line from a melanoma biopsy)
# CBRC014 = tested on: CBRC014 (line from a melanoma biopsy)
# CBRC016 = tested on: CBRC016 (line from a melanoma biopsy)
# CBRC017 = tested on: CBRC017 (line from a melanoma biopsy)
# COLO792 = tested on: COLO792
# COLO800 = tested on: COLO800
# COLO829 = tested on: COLO829
# G361 = tested on: G361
# IPC-298 = tested on: IPC-298
# IST-MEL1 = tested on: IST-MEL1
# LB2518-MEL = tested on: LB2518-MEL
# LOXIMVI = tested on: LOXIMVI
# A375 = tested on: A375
# CBRC013 = tested on: CBRC013 (line from a melanoma biopsy)
# MEL-HO = tested on: MEL-HO
# CBRC034 = tested on: CBRC034 (line from a melanoma biopsy)
SMILES,cleaved PARP positive nuclei fraction (501Mel),cleaved PARP positive nuclei fraction (A101D),cleaved PARP positive nuclei fraction (A2058),cleaved PARP positive nuclei fraction (C32),cleaved PARP positive nuclei fraction (CBRC008),cleaved PARP positive nuclei fraction (CBRC014),cleaved PARP positive nuclei fraction (CBRC016),cleaved PARP positive nuclei fraction (CBRC017),cleaved PARP positive nuclei fraction (COLO792),cleaved PARP positive nuclei fraction (COLO800),cleaved PARP positive nuclei fraction (COLO829),cleaved PARP positive nuclei fraction (G361),cleaved PARP positive nuclei fraction (IPC-298),cleaved PARP positive nuclei fraction (IST-MEL1),cleaved PARP positive nuclei fraction (LB2518-MEL),cleaved PARP positive nuclei fraction (LOXIMVI),cleaved PARP positive nuclei fraction (A375),cleaved PARP positive nuclei fraction (CBRC013),cleaved PARP positive nuclei fraction (MEL-HO),cleaved PARP positive nuclei fraction (CBRC034)
"Cc1cc(Nc2cc(N3CCN(C)CC3)nc(Sc3ccc(NC(=O)C4CC4)cc3)n2)n[nH]1 [Tozasertib] + COc1cc2ncnc(Nc3ccc(Oc4ccccc4)cc3)c2cc1OC [SrcI1] (first compound 0.006 µM, partner dose 2 µM)",91.5%,29.4%,56%,165%,275%,91%,30.5%,116%,111%,53.8%,148%,92.7%,102%,107%,59.2%,140%,,,,
"Cc1ccc(Nc2nccc(N(C)c3ccc4c(C)n(C)nc4c3)n2)cc1S(N)(=O)=O [Pazopanib] + C=CCn1c(=O)c2cnc(Nc3ccc(N4CCN(C)CC4)cc3)nc2n1-c1cccc(C(C)(C)O)n1 [MK1775] (first compound 0.4 µM, partner dose 0.02 µM)",,218%,38.3%,65.2%,43.9%,93.6%,109%,115%,85.1%,40.7%,152%,149%,121%,271%,,182%,233%,67.2%,130%,
"O=C(Nc1cc(C(F)(F)F)cc(C(F)(F)F)c1)c1cc(Cl)ccc1O + Nc1ccn([C@@H]2O[C@H](CO)[C@@H](O)C2(F)F)c(=O)n1 [gemcitabine] (first compound 0.016 µM, partner dose 0.0004 µM)",,108%,83.9%,76.2%,190%,123%,99.6%,122%,60.4%,73%,119%,113%,60%,76.2%,,133%,152%,,42%,79.2%
"O=C(Nc1cc(C(F)(F)F)cc(C(F)(F)F)c1)c1cc(Cl)ccc1O + C=CCn1c(=O)c2cnc(Nc3ccc(N4CCN(C)CC4)cc3)nc2n1-c1cccc(C(C)(C)O)n1 [MK1775] (first compound 0.016 µM, partner dose 0.02 µM)",,102%,94.4%,29.9%,54.2%,123%,275%,120%,97.7%,93.1%,42.2%,116%,278%,220%,,291%,233%,131%,112%,
"Cc1cn(-c2cc(NC(=O)c3ccc(C)c(Nc4nccc(-c5cccnc5)n4)c3)cc(C(F)(F)F)c2)cn1 [nilotinib] + O=C(Nc1ccccc1)c1cc([N+](=O)[O-])ccc1Cl [GW9662] (first compound 0.2 µM, partner dose 2 µM)",76.9%,21.7%,72.5%,46.9%,73.7%,102%,67.4%,187%,147%,125%,123%,195%,74.3%,243%,255%,133%,,,,
"CC[C@]1(O)C[C@H]2CN(CCc3c([nH]c4ccccc34)[C@@](C(=O)OC)(c3cc4c(cc3OC)N(C=O)[C@H]3[C@@](O)(C(=O)OC)[C@H](OC(C)=O)[C@]5(CC)C=CCN6CC[C@]43[C@@H]65)C2)C1 [vincristine] + COc1ccc2c(c1)CCC1C2CCC2(C)C(NCCCCCCN3C(=O)C=CC3=O)CCC12 [U73122] (first compound 0.0001 µM, partner dose 0.4 µM)",70.1%,71.2%,222%,75.3%,59.3%,109%,81.7%,89.2%,79.8%,69.2%,80%,29.8%,91.9%,205%,76.1%,224%,,,,
"COc1cc([C@@H]2c3cc4c(cc3[C@@H](O[C@@H]3O[C@@H]5CO[C@@H](C)O[C@H]5[C@H](O)[C@H]3O)[C@H]3COC(=O)[C@H]23)OCO4)cc(OC)c1O [etoposide] + O=C(O)C(=O)Nc1sc2c(c1C(=O)O)CCNC2 [TCS401] (first compound 0.02 µM, partner dose 1.66667 µM)",65.4%,7.26%,20.6%,6.33%,,78.1%,77.6%,75.3%,102%,94.5%,149%,125%,49.6%,27.9%,70.8%,49.3%,,,,
"COc1cc([C@@H]2c3cc4c(cc3[C@@H](O[C@@H]3O[C@@H]5CO[C@@H](C)O[C@H]5[C@H](O)[C@H]3O)[C@H]3COC(=O)[C@H]23)OCO4)cc(OC)c1O [etoposide] + CC(=O)c1c(C)c2cnc(Nc3ccc(N4CCNCC4)cn3)nc2n(C2CCCC2)c1=O [palbociclib] (first compound 0.02 µM, partner dose 0.04 µM)",,31.2%,125%,85.1%,76.1%,106%,32.6%,228%,162%,125%,183%,142%,69.8%,137%,134%,146%,250%,,157%,149%
"Cc1cc(Nc2cc(N3CCN(C)CC3)nc(Sc3ccc(NC(=O)C4CC4)cc3)n2)n[nH]1 [Tozasertib] + O=C(Nc1ccccc1)c1cc([N+](=O)[O-])ccc1Cl [GW9662] (first compound 0.006 µM, partner dose 2 µM)",158%,28.5%,161%,134%,64.6%,244%,128%,103%,79.9%,83.7%,128%,104%,45.1%,103%,66.9%,65.8%,,,,
"COc1cc([C@@H]2c3cc4c(cc3[C@@H](O[C@@H]3O[C@@H]5CO[C@@H](C)O[C@H]5[C@H](O)[C@H]3O)[C@H]3COC(=O)[C@H]23)OCO4)cc(OC)c1O [etoposide] + O=C(Nc1ccccc1)c1cc([N+](=O)[O-])ccc1Cl [GW9662] (first compound 0.02 µM, partner dose 2 µM)",134%,20.3%,101%,90%,65.6%,96.4%,47.7%,87.7%,57%,127%,63.3%,,51.1%,143%,77%,131%,,,,
"CC[C@]1(O)C[C@H]2CN(CCc3c([nH]c4ccccc34)[C@@](C(=O)OC)(c3cc4c(cc3OC)N(C=O)[C@H]3[C@@](O)(C(=O)OC)[C@H](OC(C)=O)[C@]5(CC)C=CCN6CC[C@]43[C@@H]65)C2)C1 [vincristine] + C=C(c1ccc(C(=O)O)cc1)c1cc2c(cc1C)C(C)(C)CCC2(C)C [Bexarotene] (first compound 0.0001 µM, partner dose 2 µM)",,247%,381%,94%,116%,111%,38.9%,108%,144%,140%,94.6%,37.2%,85%,59.9%,,118%,320%,,69.3%,94.6%
"CC[C@]1(O)C[C@H]2CN(CCc3c([nH]c4ccccc34)[C@@](C(=O)OC)(c3cc4c(cc3OC)N(C=O)[C@H]3[C@@](O)(C(=O)OC)[C@H](OC(C)=O)[C@]5(CC)C=CCN6CC[C@]43[C@@H]65)C2)C1 [vincristine] + c1cc(-c2cnn3cc(-c4ccc(OCCN5CCCCC5)cc4)cnc23)ccn1 [Dorsomorphin] (first compound 0.0001 µM, partner dose 0.4 µM)",88.3%,80.4%,1570%,166%,139%,105%,81.5%,126%,109%,101%,50.2%,124%,62.5%,168%,160%,12.9%,,,,
"Cc1cc(Nc2cc(N3CCN(C)CC3)nc(Sc3ccc(NC(=O)C4CC4)cc3)n2)n[nH]1 [Tozasertib] + Cc1cc(N2CCOCC2)cc2[nH]c(-c3c(NC[C@@H](O)c4cccc(Cl)c4)cc[nH]c3=O)nc12 [BMS536924] (first compound 0.006 µM, partner dose 0.2 µM)",,168%,90.7%,132%,273%,81.1%,89.6%,81%,167%,166%,104%,112%,135%,50.2%,,57.9%,77.4%,112%,117%,
"O=C(Nc1cc(C(F)(F)F)cc(C(F)(F)F)c1)c1cc(Cl)ccc1O + CCc1ccc(CCOc2ccc(CC3SC(=O)NC3=O)cc2)nc1 [pioglitazone] (first compound 0.016 µM, partner dose 2 µM)",69.1%,25.5%,80.3%,47.3%,73.3%,77.1%,58.6%,101%,66.5%,116%,45.5%,66.3%,46.5%,127%,71.6%,118%,,,,
"COc1cc([C@@H]2c3cc4c(cc3[C@@H](O[C@@H]3O[C@@H]5CO[C@@H](C)O[C@H]5[C@H](O)[C@H]3O)[C@H]3COC(=O)[C@H]23)OCO4)cc(OC)c1O [etoposide] + COc1ccc(-c2ccc3c(N4CCOCC4)nc(N4C[C@@H](C)O[C@@H](C)C4)nc3n2)cc1CO [KU0063794] (first compound 0.02 µM, partner dose 0.02 µM)",65%,28%,156%,59%,408%,96.3%,69.2%,98.4%,129%,86.5%,194%,69.8%,92.1%,191%,152%,87.3%,,,,
"CCCCCCCCCCCCCCCCCCOP(=O)([O-])OC1CC[N+](C)(C)CC1 [Perifosine] + Cn1cncc1[C@@](N)(c1ccc(Cl)cc1)c1ccc2c(c1)c(-c1cccc(Cl)c1)cc(=O)n2C [tipifarnib] (first compound 0.4 µM, partner dose 0.01 µM)",,86.8%,40.2%,17.1%,215%,112%,237%,231%,85.6%,37.7%,96.5%,167%,102%,140%,,136%,1760%,175%,73.5%,
"O=C(Nc1cc(C(F)(F)F)cc(C(F)(F)F)c1)c1cc(Cl)ccc1O + O=C(Nc1ccccc1)c1cc([N+](=O)[O-])ccc1Cl [GW9662] (first compound 0.016 µM, partner dose 2 µM)",61.9%,71.8%,38.8%,81.1%,57.2%,111%,246%,184%,98.6%,15.7%,156%,63.1%,30.2%,68.6%,88.1%,124%,,,,

# Copied from the list.
# COc1cc([C@@H]2c3cc4c(cc3[C@@H](O[C@@H]3O[C@@H]5CO[C@@H](C)O[C@H]5[C@H](O)[C@H]3O)[C@H]3COC(=O)[C@H]23)OCO4)cc(OC)c1O [etoposide] + COc1ccc(-c2ccc3c(N4CCOCC4)nc(N4C[C@@H](C)O[C@@H](C)C4)nc3n2)cc1CO [KU0063794] (first compound 0.02 µM, partner dose 0.02 µM) – cleaved PARP positive nuclei fraction (C32): 59%
# Cc1ccc(Nc2nccc(N(C)c3ccc4c(C)n(C)nc4c3)n2)cc1S(N)(=O)=O [Pazopanib] + C=CCn1c(=O)c2cnc(Nc3ccc(N4CCN(C)CC4)cc3)nc2n1-c1cccc(C(C)(C)O)n1 [MK1775] (first compound 0.4 µM, partner dose 0.02 µM) – cleaved PARP positive nuclei fraction (A101D): 218%
